At least one structure is not confirmed: it was looked up by name or label, or the drawing left a doubt.
Molecular target: T1, Taq DNA Polymerase (Thermus aquaticus, UniProt P19821)
T1 construct: made in house
Test: PCR amplification of a 455 bp human numb target with Taq DNA Polymerase in the presence of surfactant, product seen on agarose gel
Assay type: biochemical
Conditions: Table 1 summary: surfactants or blocked co-polymers that worked in the assay used and those that did not
Protocol: In order to test the efficacy of detergents on Taq DNA Polymerase, a stock of Taq DNA Polymerase at a base concentration of 111 units/ul was diluted to 5 units/ul in a storage buffer that lacked detergents. The standard Taq DNA Polymerase storage buffer has 0.5% Tween-20 and 0.5% NP-40. In this example 0.625 units of Taq were added per 25 ul reaction, so that represents a change in final detergent concentration of 0.0025% each detergent to 0.00011% of each. A 455 bp single-copy target from the human numb gene was PCR-amplified from 1 ng human genomic DNA in a 25 ul reaction with 0.625 units of the diluted Taq DNA polymerase. The cycling conditions were 95° C. for 2 minutes; 35 cycles of 95° C. for 10 seconds, 55° C. for 20 seconds, and 72° C. for 30 seconds; 72° C. for 5 minutes; and 10° C. until required. An aliquot of 10 ul was run on a 1.5% agarose/ethidium bromide gel.
In FIG. 1, the results of the initial screen of several non-ionic and zwitterionic detergents are shown. In this example there is residual Tween-20 and NP-40 in the enzyme storage buffer. The concentrations of surfactants listed are the final concentration of that surfactant in the assay. All conditions in the example, including the “no detergent” condition, have 0.00011% Tween-20 and 0.00011% NP-40 resulting from carry-over from the enzyme storage buffer. […]

Chains of the proteins cited; added tags and fusions are not shown.
UniProt P19821, whole entry: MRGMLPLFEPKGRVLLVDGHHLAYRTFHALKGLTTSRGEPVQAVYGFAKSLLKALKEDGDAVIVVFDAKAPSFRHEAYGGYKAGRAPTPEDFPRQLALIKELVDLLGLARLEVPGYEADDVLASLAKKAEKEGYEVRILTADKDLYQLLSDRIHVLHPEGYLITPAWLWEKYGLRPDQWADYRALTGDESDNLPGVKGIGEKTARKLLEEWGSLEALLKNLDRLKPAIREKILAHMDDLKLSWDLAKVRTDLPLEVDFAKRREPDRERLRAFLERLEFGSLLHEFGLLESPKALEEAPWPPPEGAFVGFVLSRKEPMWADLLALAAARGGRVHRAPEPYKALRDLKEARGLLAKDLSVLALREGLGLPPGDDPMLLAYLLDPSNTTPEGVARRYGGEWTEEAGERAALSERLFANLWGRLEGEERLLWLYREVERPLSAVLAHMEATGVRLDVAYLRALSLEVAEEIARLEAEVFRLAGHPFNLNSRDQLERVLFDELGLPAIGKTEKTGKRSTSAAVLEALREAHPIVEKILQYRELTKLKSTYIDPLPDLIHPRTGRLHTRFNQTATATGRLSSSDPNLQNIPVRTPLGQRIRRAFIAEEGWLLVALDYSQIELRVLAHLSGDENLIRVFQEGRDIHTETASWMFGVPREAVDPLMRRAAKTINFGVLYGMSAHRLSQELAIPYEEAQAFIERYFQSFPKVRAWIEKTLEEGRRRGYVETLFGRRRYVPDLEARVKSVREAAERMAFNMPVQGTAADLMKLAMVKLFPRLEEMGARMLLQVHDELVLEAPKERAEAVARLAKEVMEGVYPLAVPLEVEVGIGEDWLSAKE

CCCCCCCCCCCC(=O)NCCC[N+](C)(C)[O-] [LAPAO, 3-Dodecylamido-N,N′-dimethylpropyl amine oxide]
Function: NO
